Measurements taken from PMC3751566.
Results are given in words; binding and its absence hold for the method and conditions named. In cells and extracts the contact can be indirect. Here binding means that the protein was enriched with, or labelled near, the bait; the list need not be complete.

Target: T1, Protein-tyrosine phosphatase 1B substrate-trapping mutant D181A (UniProt P18031)
T1 sequence: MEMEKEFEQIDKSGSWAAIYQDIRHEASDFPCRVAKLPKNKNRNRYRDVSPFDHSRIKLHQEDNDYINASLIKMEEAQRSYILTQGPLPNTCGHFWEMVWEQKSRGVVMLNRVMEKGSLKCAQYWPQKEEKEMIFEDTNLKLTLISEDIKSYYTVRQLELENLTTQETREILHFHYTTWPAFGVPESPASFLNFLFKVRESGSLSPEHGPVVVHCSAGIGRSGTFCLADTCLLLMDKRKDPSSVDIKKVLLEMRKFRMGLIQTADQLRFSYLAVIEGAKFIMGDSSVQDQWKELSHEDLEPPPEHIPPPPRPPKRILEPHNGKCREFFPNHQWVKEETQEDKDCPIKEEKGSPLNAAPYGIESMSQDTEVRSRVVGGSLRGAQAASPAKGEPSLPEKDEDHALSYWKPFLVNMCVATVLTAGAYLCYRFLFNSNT
Assay: affinity purification with mass spectrometry; substrate trapping with the PTP1B D/A mutant in adipocytes and mass spectrometry; methods not given here (ref. 30)

binding: binds
B1: Munc18c (endogenous) (protein, UniProt Q60770 1-592)
chain: MAPPVSERGLKSVVWRKIKTAVFDDCRKEGEWKIMLLDEFTTKLLSSCCKMTDLLEEGITVIENIYKNREPVRQMKALYFISPTPKSVDCFLRDFGSKSEKKYKAAYIYFTDFCPDSLFNKIKASCSKSIRRCKEINISFIPQESQVYTLDVPDAFYYCYSPDPSNASRKEVVMEAMAEQIVTVCATLDENPGVRYKSKPLDNASKLAQLVEKKLEDYYKIDEKGLIKGKTQSQLLIIDRGFDPVSTVLHELTFQAMAYDLLPIENDTYKYKTDGKEKEAVLEEDDDLWVRVRHRHIAVVLEEIPKLMKEISSTKKATEGKTSLSALTQLMKKMPHFRKQISKQVVHLNLAEDCMNKFKLNIEKLCKTEQDLALGTDAEGQRVKDSMLVLLPVLLNKNHDNCDKIRAVLLYIFGINGTTEENLDRLIHNVKIEDDSDMIRNWSHLGVPIVPPSQQAKPLRKDRSAEETFQLSRWTPFIKDIMEDAIDNRLDSKEWPYCSRCPAVWNGSGAVSARQKPRTNYLELDRKNGSRLIIFVIGGITYSEMRCAYEVSQAHKSCEVIIGSTHILTPRKLLDDIKMLNKSKDKVSFKDE
